These are yes or no findings as the source states them, for the method shown. In cells and extracts the contact can be indirect. A yes stands for co-enrichment or nearness to the bait. Other partners may have been found. No binding means not detected with the bait.
molecular target: T1, ΔNp73α-TAP (human) (UniProt O15350); assay: affinity purification with mass spectrometry; tandem affinity purification (IgG Sepharose, TEV cleavage, calmodulin Sepharose) of ΔNp73α-TAP from the nuclear soluble fraction of 38HK; LC-MS of elution fraction 2; TAP tag alone as control; hits enriched more than 10-fold
T1 sequence: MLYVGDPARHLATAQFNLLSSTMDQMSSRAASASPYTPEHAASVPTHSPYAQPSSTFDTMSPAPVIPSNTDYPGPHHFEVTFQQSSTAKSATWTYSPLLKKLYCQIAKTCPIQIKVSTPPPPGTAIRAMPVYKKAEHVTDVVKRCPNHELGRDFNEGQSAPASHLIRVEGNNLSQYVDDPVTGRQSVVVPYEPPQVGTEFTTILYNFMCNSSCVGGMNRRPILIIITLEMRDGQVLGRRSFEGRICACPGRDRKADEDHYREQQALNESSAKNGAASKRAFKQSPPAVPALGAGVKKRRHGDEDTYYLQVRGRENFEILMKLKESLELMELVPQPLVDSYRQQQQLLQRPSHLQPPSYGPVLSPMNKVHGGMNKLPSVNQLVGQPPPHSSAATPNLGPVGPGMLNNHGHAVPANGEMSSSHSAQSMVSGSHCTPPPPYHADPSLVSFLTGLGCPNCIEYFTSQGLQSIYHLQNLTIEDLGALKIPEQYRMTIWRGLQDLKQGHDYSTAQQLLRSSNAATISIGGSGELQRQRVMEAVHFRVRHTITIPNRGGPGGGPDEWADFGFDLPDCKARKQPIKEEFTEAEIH

Protein sequences, listed by entry. Tags and fused reporters are not part of them.
UniProt Q16254: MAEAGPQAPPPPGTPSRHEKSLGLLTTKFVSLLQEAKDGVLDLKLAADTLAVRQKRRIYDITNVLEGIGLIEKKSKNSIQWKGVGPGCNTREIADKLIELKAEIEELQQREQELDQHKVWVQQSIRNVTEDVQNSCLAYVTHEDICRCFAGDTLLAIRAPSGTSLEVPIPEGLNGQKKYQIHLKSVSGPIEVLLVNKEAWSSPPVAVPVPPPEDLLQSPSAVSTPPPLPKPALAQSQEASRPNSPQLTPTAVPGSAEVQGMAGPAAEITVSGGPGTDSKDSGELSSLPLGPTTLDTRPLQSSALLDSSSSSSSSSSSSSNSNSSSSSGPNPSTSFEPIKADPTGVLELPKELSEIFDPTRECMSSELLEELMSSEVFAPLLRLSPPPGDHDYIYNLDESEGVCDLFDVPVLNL
UniProt Q09028: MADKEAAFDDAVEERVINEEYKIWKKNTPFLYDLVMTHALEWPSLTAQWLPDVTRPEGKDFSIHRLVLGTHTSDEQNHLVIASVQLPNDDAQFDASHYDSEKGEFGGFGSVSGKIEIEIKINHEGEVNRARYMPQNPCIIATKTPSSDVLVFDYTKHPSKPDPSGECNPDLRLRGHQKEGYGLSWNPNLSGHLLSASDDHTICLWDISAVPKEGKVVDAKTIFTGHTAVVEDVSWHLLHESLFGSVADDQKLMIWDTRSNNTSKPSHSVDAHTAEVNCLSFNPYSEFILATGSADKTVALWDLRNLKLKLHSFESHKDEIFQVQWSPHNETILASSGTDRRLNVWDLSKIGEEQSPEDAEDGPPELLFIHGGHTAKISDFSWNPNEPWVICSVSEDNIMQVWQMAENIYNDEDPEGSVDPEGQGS

Substance	binding
endogenous E2F4 (38HK) (from UniProt Q16254 1-413)	binds
endogenous RBBP4 (38HK) (from UniProt Q09028 1-425)	no binding
HPV38 E7 oncoprotein (in 38HK) (human papillomavirus type 38)	no binding
HPV38 E6 oncoprotein (in 38HK) (human papillomavirus type 38)	no binding

— PMC10117100
